Reference: publication PMC7819943, “Rice protein-binding microarrays: a tool to detect cis-acting elements near promoter regions in rice”
This is one part of the list.

What follows are sequences tested against T1, OsSMF1 (Oryza sativa, UniProt Q6ZLB0 1-436) (assay: protein-binding microarray (RPBM); PBS, 2% BSA, 51.3 ng/ul salmon testes DNA, 50 uM zinc acetate, 200 nM TF, 25 C, 1 h; high values mean tight binding). Details: protein: recombinant; tags: N-terminal polyhistidine and DsRed monomer fusion (pET32a); chain copies: 2; label: CyDye5-dUTP incorporated in the synthesized complementary strand; 3' TTTTT single-stranded linker to array surface; dsDNA, one strand shown.
T1 sequence: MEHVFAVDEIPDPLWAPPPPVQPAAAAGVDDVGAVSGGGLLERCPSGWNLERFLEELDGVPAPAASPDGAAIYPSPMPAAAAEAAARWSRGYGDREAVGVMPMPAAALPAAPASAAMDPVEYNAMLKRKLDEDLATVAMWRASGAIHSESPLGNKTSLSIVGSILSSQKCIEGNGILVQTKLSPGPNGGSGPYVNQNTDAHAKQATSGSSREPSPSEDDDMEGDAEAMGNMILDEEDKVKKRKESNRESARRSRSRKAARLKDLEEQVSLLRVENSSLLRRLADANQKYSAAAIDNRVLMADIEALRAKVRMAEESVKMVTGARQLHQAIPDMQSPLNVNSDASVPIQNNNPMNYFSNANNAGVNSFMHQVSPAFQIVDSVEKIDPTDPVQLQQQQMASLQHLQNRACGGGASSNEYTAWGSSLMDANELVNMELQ
How it was run: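 Polyhistidine-tagged DsRed fusions of transcription factors, joined at the N-terminus, were expressed in E. coli BL21-CodonPlus and isolated on Ni–NTA. They were incubated at 200 nM for 1 h at 25 °C on a custom Agilent array, double-stranded and BSA-blocked, in PBS with 2% BSA, salmon testes DNA and 50 µM zinc acetate. The binding signal is per-feature fluorescence intensity (arbitrary units) read on an Axon 4000B scanner after washing.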

Question: How did the binding signal turn out when “TTTAGGTTCCATAGATATCTGGTTTCGTTGACGTGGCATCCGGAGTCACCTAGTGCAG” was run?
Answer: 27800 fluorescence intensity (a.u.)

Question: With “TGCCATCAACCGAACAGATTGCCCTCTCCTATCTACACGACGGAGTCACCTAGTGCAG” as the sequence, how does the binding signal read?
Answer: 4220 fluorescence intensity (a.u.)

Question: Which binding signal does the source give for “CACCACGGCCCCAGCTCATGACGTGTTGAGAGGGAAGCGTCGGAGTCACCTAGTGCAG” here?
Answer: 8370 fluorescence intensity (a.u.)

Question: How did the binding signal turn out when “AATACGAAACCGACGGAGTAATAATAAACAGATAAATAAACGGAGTCACCTAGTGCAG” was run?
Answer: 3220 fluorescence intensity (a.u.)

Question: “CAGCCATACAACGAATGCGAGCCACTCCACGTGCAGGTGCCGGAGTCACCTAGTGCAG” was tested. Which binding signal did it give?
Answer: 4140 fluorescence intensity (a.u.)

Question: For “GTGATGAGTTTGATGACTGTTGAACTGATCCATACTCCCTCGGAGTCACCTAGTGCAG”, which binding signal is on record?
Answer: 4030 fluorescence intensity (a.u.)

Question: “TCCACTTCAGACCCAATTCCACATCAGACCCAACTTCTAGCGGAGTCACCTAGTGCAG” was tested. Which binding signal did it give?
Answer: 5270 fluorescence intensity (a.u.)

Question: How did the binding signal turn out when “GCCACTTGTAGTATGATGTGTTTGTTTCCTACCATAACTACGGAGTCACCTAGTGCAG” was run?
Answer: 4400 fluorescence intensity (a.u.)

Question: How did the binding signal turn out when “CAGCTTTCGTTGACCCGCTCGGCGTTAGCACTCGAGAGTCCGGAGTCACCTAGTGCAG” was run?
Answer: 3370 fluorescence intensity (a.u.)

Question: How did the binding signal turn out when “TCACAGTAGGTGGACCCGTACACGTACACGCCTCTTTCCTCGGAGTCACCTAGTGCAG” was run?
Answer: 6460 fluorescence intensity (a.u.)

Question: “TCGTGCCACCTCAGGCACTTGCTTTTGATTCACCTGTAAACGGAGTCACCTAGTGCAG” was tested. Which binding signal did it give?
Answer: 4530 fluorescence intensity (a.u.)

Question: How did the binding signal turn out when “GCCAGCCGGAGCCCAGGTGGCGGACACCGTCCATGGCCGCCGGAGTCACCTAGTGCAG” was run?
Answer: 3670 fluorescence intensity (a.u.)

Question: With “CATTTTACACTCTCTTGCATCGAATGTTTTGACACATGCACGGAGTCACCTAGTGCAG” as the sequence, how does the binding signal read?
Answer: 3890 fluorescence intensity (a.u.)

Question: “TCTACTCCAGGGTCTTCTCGCTGTCGTGGCAGTTCTACGGCGGAGTCACCTAGTGCAG” was tested. Which binding signal did it give?
Answer: 5700 fluorescence intensity (a.u.)

Question: Which binding signal does the source give for “GAGTCGTGGTCAATGGTATGTAGGTGGATGGACCTCAGTGCGGAGTCACCTAGTGCAG” here?
Answer: 4550 fluorescence intensity (a.u.)

Question: Which binding signal does the source give for “TTTCAATCTCTTTCTTCTCTCCAAAACACAAATCGTCGCCCGGAGTCACCTAGTGCAG” here?
Answer: 13500 fluorescence intensity (a.u.)

Question: Which binding signal does the source give for “CTGTGTGGCTCCTATCAACTGCTTGCAAGAATTGTTATTTCGGAGTCACCTAGTGCAG” here?
Answer: 3740 fluorescence intensity (a.u.)

Question: For “GTTGATTCATCTCGCGATTGATCGAGCTCGAGCGGCGGTGCGGAGTCACCTAGTGCAG”, which binding signal is on record?
Answer: 14100 fluorescence intensity (a.u.)

Question: With “ACTTGGCAACGGGAGAGATGTACGTGGCGTGAAATCTCTGCGGAGTCACCTAGTGCAG” as the sequence, how does the binding signal read?
Answer: 4910 fluorescence intensity (a.u.)

Question: For “GCAGCAGAATTGCAGCTCAGGTGCTCGTCGGCGTCATCACCGGAGTCACCTAGTGCAG”, which binding signal is on record?
Answer: 6180 fluorescence intensity (a.u.)

Question: “TATCCACTACTGCGTCAGTCACTCCCCGCGAGCTAAGCTCCGGAGTCACCTAGTGCAG” was tested. Which binding signal did it give?
Answer: 3320 fluorescence intensity (a.u.)

Question: How did the binding signal turn out when “TATTGCCCTATCCGGTCAATGGATACCTCATATGTTGTGTCGGAGTCACCTAGTGCAG” was run?
Answer: 3210 fluorescence intensity (a.u.)

Question: With “GAAAATGCTGACGTCGTCAACTCTGTTTCAAGTCTCACGTCGGAGTCACCTAGTGCAG” as the sequence, how does the binding signal read?
Answer: 10200 fluorescence intensity (a.u.)

Question: With “CCACCATACAAAACCACCTTAGAGGGTAATATGAACGGTTCGGAGTCACCTAGTGCAG” as the sequence, how does the binding signal read?
Answer: 31800 fluorescence intensity (a.u.)

Question: “ATTACGGGGATGGGAATTTATCCTCATGACTCCCTGCCTTCGGAGTCACCTAGTGCAG” was tested. Which binding signal did it give?
Answer: 3760 fluorescence intensity (a.u.)

Question: How did the binding signal turn out when “GGCCGTTTCCTTCTCAGTTTGGACCACATATGGGCCGACACGGAGTCACCTAGTGCAG” was run?
Answer: 16700 fluorescence intensity (a.u.)

Question: “AGCCTCTGCCACGGCGGCGACACCCGACTTCTCCTTCTCCCGGAGTCACCTAGTGCAG” was tested. Which binding signal did it give?
Answer: 7620 fluorescence intensity (a.u.)

Question: How did the binding signal turn out when “CCGAACCGATTCCACAGTGACTCCGCACCATTTCCGACATCGGAGTCACCTAGTGCAG” was run?
Answer: 4580 fluorescence intensity (a.u.)

Question: Which binding signal does the source give for “GAACTAACCTTTGCCACCACTGATCCCTGCTGCTACTCCTCGGAGTCACCTAGTGCAG” here?
Answer: 3190 fluorescence intensity (a.u.)

Question: Which binding signal does the source give for “CATCACTATCTTGTTGGAGCTGTATTGTCATCGTGTAATACGGAGTCACCTAGTGCAG” here?
Answer: 4190 fluorescence intensity (a.u.)

Question: How did the binding signal turn out when “CCAACAAGGCCTACTCGCACGTCGTCACTCCGTCCATCTCCGGAGTCACCTAGTGCAG” was run?
Answer: 5300 fluorescence intensity (a.u.)

Question: With “TCCTCCACGTCAGAAGCGGTGATGGCTGGCGTTCTGCCGACGGAGTCACCTAGTGCAG” as the sequence, how does the binding signal read?
Answer: 27900 fluorescence intensity (a.u.)

Question: Which binding signal does the source give for “CATCGTACACCACGTGTTACCAGTGTCTTGACCAAAGCGGCGGAGTCACCTAGTGCAG” here?
Answer: 6910 fluorescence intensity (a.u.)

Question: For “CTGAGACAAGGGAATGCTTGGGGATCGGGGTAATTGATGACGGAGTCACCTAGTGCAG”, which binding signal is on record?
Answer: 4560 fluorescence intensity (a.u.)

Question: Which binding signal does the source give for “TAGTACAACCTCCAAATCCAGGTCAAACCAGGCGATTCGACGGAGTCACCTAGTGCAG” here?
Answer: 3410 fluorescence intensity (a.u.)

Question: “CCGCCTCGTCCCCTCCCCACCACCGCCACCGCCACCGCCACGGAGTCACCTAGTGCAG” was tested. Which binding signal did it give?
Answer: 3730 fluorescence intensity (a.u.)

Question: “GAAATTATATGTTGCTGATCCAGTCACTGCCGCCTGTTACCGGAGTCACCTAGTGCAG” was tested. Which binding signal did it give?
Answer: 5000 fluorescence intensity (a.u.)

Question: “TTCTCAGCCAATCCCCAGCTCACACGTGCCAACTCTTCCACGGAGTCACCTAGTGCAG” was tested. Which binding signal did it give?
Answer: 7630 fluorescence intensity (a.u.)

Question: With “CAAACACTCAAATGTGGCGTAAACATACCTATATCAGCCACGGAGTCACCTAGTGCAG” as the sequence, how does the binding signal read?
Answer: 4060 fluorescence intensity (a.u.)

Question: For “CGATTTACTTCAAATTTTAGAGGATCAGATCCGACGAAATCGGAGTCACCTAGTGCAG”, which binding signal is on record?
Answer: 42900 fluorescence intensity (a.u.)

Question: How did the binding signal turn out when “CCCAGCCCGGCGTCCCCTTCTCGGCTTCCTCCTCCACCATCGGAGTCACCTAGTGCAG” was run?
Answer: 4100 fluorescence intensity (a.u.)

Question: With “ATGGTGGTTGTTTAGCCGAGGGAATTGGTGGTGAGGTTAACGGAGTCACCTAGTGCAG” as the sequence, how does the binding signal read?
Answer: 32400 fluorescence intensity (a.u.)
